PubChem BioAssay AID264 (DTP/NCI, 2004)
The list does not hold the whole screen: it gathers tests that were run many times, whatever their T/C, doses with no T/C, and many T/C values between a quarter and a half above the control. Other doses and runs of a compound stand elsewhere. T/C gives the treated animals as a percentage of the vehicle group. Schedules are NCI's codes, taken here to give the interval after Q, in days (D) or hours (H), and the number of doses after X. Some T/C values carry the count of animals alive at the toxicity check (mostly the fifth day); where none is given, no animal had died by that day. Some entries hold several experiments; the results are listed from low to high. Some entries give survivors of the animals treated and no T/C: the source files T/C as zero there, which appears to mark a toxic dose or a test without result, not a measured value. Counts of survivors are from the toxicity check (mostly the fifth day) where no day follows; animals may have died later.

Tested on: nude mice, LX-1 lung xenograft intrarenal, tumor weight T/C
Test: NCI In Vivo Anticancer Drug Screen. Data for tumor model Human Lung LX-1 Xenograft (intrarenal inoculation) in NU/NU Swiss (nude) mice
Details: T/C endpoint: mean tumor weight change, higher T/C = larger tumour; for T/C: evaluated on day 11
Description: The antitumor activity of compounds was measured in mice bearing transplantable tumors. Survival or tumor size were measured and the results are expressed as the measurement made in the treated group (T) divided by the measurement made in the vehicle treated control group (C). The tumor model used in this assay is Human Lung LX-1 Xenograft (intrarenal inoculation) in NU/NU Swiss (nude) mice

[1] = dose: 8.0 mg/kg/injection, schedule: Q01DX010 (sc), vehicle: saline
[2] = dose: 16.0 mg/kg/injection, schedule: Q01DX010 (sc), vehicle: saline
[3] = dose: 50.0 mg/kg/injection, schedule: Q01DX010 (sc), vehicle: saline
[4] = dose: 100.0 mg/kg/injection, schedule: Q01DX010 (sc), vehicle: saline
[5] = dose: 200.0 mg/kg/injection, schedule: Q01DX010 (sc), vehicle: saline
[6] = dose: 300.0 mg/kg/injection, schedule: Q04DX003 (sc), vehicle: saline with Tween-80

Q: `N[C@H](C(=O)O)[C@@H]1CC(Cl)=NO1` was tested. Which T/C (dose: 4.0 mg/kg/injection, schedule: Q01DX010 (sc), vehicle: saline) did it give?
A: 3, 39, 74 [2 of 3 alive on day 11], 159 % of control

Q: What about the T/C [1] of the same molecule?
A: 33, 68, 114 % of control

Q: What about the survivor count [1] of the same molecule?
A: 1 of 3 on day 11

Q: And the T/C [2]?
A: 37 [2 of 3 alive on day 11] and 45 % of control [2 of 3 alive on day 11]

Q: What about the survivor count [2] of the same molecule?
A: 1 of 3 on day 11

Q: And the survivor count (dose: 32.0 mg/kg/injection, schedule: Q01DX010 (sc), vehicle: saline)?
A: 0 of 3 on day 11 and 1 of 3 on day 11

Q: And the survivor count (dose: 64.0 mg/kg/injection, schedule: Q01DX010 (sc), vehicle: saline)?
A: 0 of 3 on day 11

Q: What about the survivor count (dose: 128.0 mg/kg/injection, schedule: Q01DX010 (sc), vehicle: saline) of the same molecule?
A: 0 of 3 on day 11

Q: For `C[n+]1c(/C=C\C=C\N2CCCCC2)sc2ccccc21`, which T/C (dose: 0.75 mg/kg/injection, schedule: Q04DX003 (sc), vehicle: Klucel (hydroxypropylcellulose) (HPC)) is on record?
A: 149 % of control

Q: What about the survivor count (dose: 6.0 mg/kg/injection, schedule: Q04DX003 (sc), vehicle: Klucel (hydroxypropylcellulose) (HPC)) of the same molecule?
A: 0 of 6 on day 11

Q: `Cc1c2cc(Cl)c3ccccc3c2c[n+]2ccccc12` was tested. Which survivor count (dose: 2400.0 mg/kg/injection, schedule: Q04DX003 (sc), vehicle: saline with Tween-80) did it give?
A: 2 of 6 on day 11

Q: Which T/C (dose: 0.5 mg/kg/injection, schedule: Q01DX010 (sc), vehicle: saline) does the source give for `C[N+](C)(C)c1ncnc2c1ncn2C1CCCO1` (centres undefined) here?
A: 128 % of control

Q: What about the survivor count (dose: 25.0 mg/kg/injection, schedule: Q01DX010 (sc), vehicle: saline) of the same molecule?
A: 0 of 3 on day 11

Q: And the T/C [3]?
A: 127 % of control

Q: What about the survivor count [3] of the same molecule?
A: 0 of 3 on day 11

Q: What about the survivor count [4] of the same molecule?
A: 0 of 3 on day 11

Q: And the survivor count [5]?
A: 0 of 3 on day 11

Q: With `CN=C(N)N/N=C(\C)c1ccc2oc3ccc(/C(C)=N/NC(N)=NC)cc3c2c1` as the molecule, how does the survivor count [6] read?
A: 2 of 6 on day 11

Q: What about the survivor count (dose: 600.0 mg/kg/injection, schedule: Q04DX003 (sc), vehicle: saline with Tween-80) of the same molecule?
A: 1 of 5 on day 11

Q: Which survivor count (dose: 200.0 mg/kg/injection, schedule: Q04DX003 (sc), vehicle: saline) does the source give for `c1cc(-c2cc3ccc(C4=NCCN4)cc3[nH]2)ccc1C1=NCCN1` here?
A: 1 of 6 on day 11

Q: How did the survivor count (dose: 800.0 mg/kg/injection, schedule: Q01DX010 (sc), vehicle: water) turn out when `CC(C)[C@](O)(C(=O)OCC1=CC[N+]2([O-])CC[C@@H](O)[C@@H]12)[C@H](C)O` (some centres undefined) was run?
A: 1 of 3 on day 11

Q: How did the survivor count (dose: 150.0 mg/kg/injection, schedule: Q04DX003 (sc), vehicle: saline) turn out when `CCOC(=O)C(N)C[S][Sn]([CH3])([CH3])[Cl]` (centres undefined) was run?
A: 0 of 6 on day 11

Q: Which T/C (dose: 50.0 mg/kg/injection, schedule: Q01DX010 (sc), vehicle: Klucel (hydroxypropylcellulose) (HPC)) does the source give for `COc1c(CNC(=O)CCl)cc2[nH]c(C)cc2c1CNC(=O)CCl` here?
A: 128 % of control

Q: And the survivor count (dose: 2400.0 mg/kg/injection, schedule: Q04DX003 (sc), vehicle: Klucel (hydroxypropylcellulose) (HPC))?
A: 3 of 6 on day 11

Q: What does the source list for `Nc1ncnc2c1ncn2C1OC(CO)C(O)C1O` (centres undefined)?
A: survivor count [4]: 0 of 3 on day 11; survivor count [5]: 0 of 3 on day 11

Q: With `O=C1SC(c2ccccc2)=S=C1c1ccccc1` as the molecule, how does the T/C [6] read?
A: 127 % of control

Q: For `OC(CCl)CN1CC[N+]2(CC1)CC[N+]1(CCN(CC(O)CCl)CC1)CC2` (centres undefined), which survivor count (dose: 512.0 mg/kg/injection, schedule: Q01DX010 (sc), vehicle: water) is on record?
A: 1 of 3 on day 11

Q: And the survivor count (dose: 1024.0 mg/kg/injection, schedule: Q01DX010 (sc), vehicle: water)?
A: 0 of 3 on day 11
